Earlier results in patent US20130243872A1, “PHARMACEUTICAL COMPOSITE FORMULATION COMPRISING HMG-COA REDUCTASE INHIBITOR AND ASPIRIN” (HANMI SCIENCE CO., LTD, priority 2010, published 2013).

Details: crystalline versus amorphous form

For `CC(C)c1c(C(=O)Nc2ccccc2)c(-c2ccccc2)c(-c2ccc(F)cc2)n1CC[C@@H](O)C[C@@H](O)CC(=O)O` [crystalline form of atorvastatin, atorvastatin], the “Increase in Cmax (in vivo absorption rate)” value is given as about 50%.
